{
  "source": "patent US20240261297A1",
  "about": "“ANTI-CDK INHIBITORS FOR CANCER TREATMENT” (St. John's Cancer Institute, priority 2021, published 2024)",
  "note": "No dose or concentration is given here for some results.",
  "data": [
    {"test_system": "MDA-MB-468", "assay": "Cell viability in breast cancer cell lines", "type": "cell-based", "details": "MCF-10A IC50 / MDA-MB-468 IC50", "text": "Tables 5 and 6 show assessment of in vitro efficacy of I-3 in a panel of breast cancer cell lines.", "values": [
      {"smiles": "CC[C@H](Nc1nc(NCc2cnc(C)cc2C)c2ncn(C(C)C)c2n1)[C@@H](C)O", "note": "[CYC065, reference compound]", "Safety window (Normal/cancer)": 1},
      {"smiles": "Nc1nccc(-c2c[nH]c3nccc(Oc4cccc(F)c4)c23)n1", "note": "[I-3, 4-(4-(3-fluorophenoxy)-1H-pyrrolo[2,3-b]pyridin-3-yl)pyrimidin-2-amine]", "Safety window (Normal/cancer)": 10},
      {"smiles": "C[C@@]1(O)CCC[C@H]1n1c(=O)c(C(F)F)cc2cnc(NC3CCN(S(C)(=O)=O)CC3)nc21", "note": "[PF-06873600]", "Safety window (Normal/cancer)": 10}
    ]}
  ]
}
